Assay results taken from paper PMC12431657, “Discovery and mechanistic insights of dibenzoylmethane as a broad spectrum inhibitor of coronavirus” (PLOS Pathogens, 2025).
Counter-ions that a name gives are not always drawn. Like-named read-outs stand apart in the source and are kept apart here. Hit rate of the full screen: of about 3,300 compounds, about 95 (3%) showed an effect of 50% or more. The list shows a part of the results.

System: HCoV-229E
Parameters: species or system Huh-7; HTS, protection from HCoV-229E induced cell death, luminescent cell viability (CellCounting-Lite 2.0), inhibition rate
Conditions: 24 h post infection, 1 h compound pre-incubation, 10 µM, inhibitor

SMILES | 229E Inhibition rate [%] | 229E Inhibition rate (229E Inhibition rate, 24 h) [%]
CC(C)(C)c1ccc(O)c(C(C)(C)C)c1 [2,4-Di-tert-butylphenol] | 22.7 | –
N[C@@H](CC(=O)N[C@@H](CC(=O)O)C(=O)O)C(=O)O [β-Aspartylaspartic acid] | 12.1 | –
CCCC(=O)c1c(O)c(Cc2c(O)c(Cc3c(O)c(C)c(OC)c(C(=O)CCC)c3O)c(O)c(C(=O)[C@@H](C)CC)c2O)c(O)c(C)c1OC [Agrimol B] | 3.6 | –
COc1c2ccoc2nc2c(O)cccc12 [Robustine] | 10.4 | –
COc1ccc(-c2cc(=O)c3c(OC)c(OC)c(OC)c(OC)c3o2)cc1O [3'-Demethylnobiletin] | 15.4 | –
COCC(=O)O [Methoxyacetic acid] | 9 | –
Cn1cc(C(=O)O)ccc1=O [1-Methyl-6-oxo-1,6-dihydropyridine-3-carboxylic acid] | 24 | –
O=C(O)CCCCC(=O)O [Adipic acid] | 15.1 | –
COc1cc2c3c(c1OC)-c1ccccc1C[C@H]3N(C)CC2 [Nuciferine] | 11.6 | –
C[C@@H]1O[C@@H](OC[C@H]2O[C@@H](Oc3c(-c4ccc(O)cc4)oc4cc(O[C@@H]5O[C@@H](C)[C@H](O)[C@@H](O)[C@H]5O)cc(O)c4c3=O)[C@H](O)[C@@H](O)[C@H]2O)[C@H](O)[C@H](O)[C@H]1O [Robinin] | 8.6 | –
CC(=O)[C@H]1CC[C@H]2[C@@H]3CCC4=CC(=O)CC[C@]4(C)[C@H]3CC[C@]12C [Progesterone] | 0 | –
COc1ccc([C@H]2OC[C@H]3[C@@H]2CO[C@H]3c2ccc(O[C@@H]3O[C@H](CO)[C@@H](O)[C@H](O)[C@H]3O)c(OC)c2)cc1OC [Phillyrin] | 0 | –
Cc1ccc(C(N)=O)cn1 [6-Methylnicotinamide] | 13.1 | –
CC(C)C[C@@](O)(CC(=O)OCc1ccc(O[C@@H]2O[C@H](CO)[C@@H](O)[C@H](O)[C@H]2O)cc1)C(=O)OCc1ccc(O[C@@H]2O[C@H](CO)[C@@H](O)[C@H](O)[C@H]2O)cc1 [Militarine] | 10.3 | –
OC[C@H]1O[C@@](CO)(OC[C@@]2(O[C@H]3O[C@H](CO)[C@@H](O)[C@H](O)[C@H]3O)O[C@H](CO)[C@@H](O)[C@@H]2O)[C@@H](O)[C@@H]1O [1-Kestose] | 18.6 | –
COc1ccc([C@@H]2CC(=O)c3c(O)cc(O[C@@H]4O[C@H](CO[C@@H]5O[C@@H](C)[C@H](O)[C@@H](O)[C@H]5O)[C@@H](O)[C@H](O)[C@H]4O)cc3O2)cc1 [Didymin] | 9.3 | –
C[N+](C)(C)CCCCC(=O)[O-] [delta-Valerobetaine] | 15.5 | –
CN(C)[C@@H]1C(O)=C(C(N)=O)C(=O)[C@@]2(O)C(O)=C3C(=O)c4c(O)cccc4[C@@](C)(O)[C@H]3[C@H](O)[C@@H]12 [Oxytetracycline] | – | 35.1
O=C[C@H](O)[C@@H](O)[C@H](O)CO [Xylose] | – | 21.1
O=C(O)C(O)Cc1ccc(O)c(O)c1 (stereo not shown) [Danshensu (sodium salt)] | 10.9 | –

Entries of single compounds, quoted from the list:
O=C[C@H](O)[C@@H](O)[C@H](O)CO [Xylose] is listed with 229E Inhibition rate (229E Inhibition rate, 24 h) [%]: 21.1
CC(C)C[C@@](O)(CC(=O)OCc1ccc(O[C@@H]2O[C@H](CO)[C@@H](O)[C@H](O)[C@H]2O)cc1)C(=O)OCc1ccc(O[C@@H]2O[C@H](CO)[C@@H](O)[C@H](O)[C@H]2O)cc1 [Militarine] is listed with 229E Inhibition rate [%]: 10.3

The list goes on.

SMILES | 229E Inhibition rate [%] | 229E Inhibition rate (229E Inhibition rate, 24 h) [%]
CSC(=O)OCC1=C[C@@H]2OC(=O)C3=CO[C@@H](O[C@@H]4O[C@H](CO)[C@@H](O)[C@H](O)[C@H]4O)[C@H]1[C@@H]32 [Paederoside] | 7.5 | –
Cc1cc(=O)oc2cc(O)c(O)cc12 [4-Methylesculetin] | 17.7 | –
N[C@@H](Cc1cc(I)c(Oc2cc(I)c(O)c(I)c2)c(I)c1)C(=O)O [L-Thyroxine] | 13.8 | –
CC(=O)OCC1=C[C@H](O)[C@@H]2C(C(=O)O)=CO[C@@H](O[C@@H]3O[C@H](CO)[C@@H](O)[C@H](O)[C@H]3O)[C@H]12 [Asperulosidic Acid] | 10.9 | –
CC(C)=CCC[C@]1(C)C=Cc2c(O)c3c(c(CC=C(C)C)c2O1)O[C@]12C(=C[C@@H]4C[C@H]1C(C)(C)O[C@@]2(C/C=C(/C)C(=O)O)C4=O)C3=O [Gambogic Acid] | 0.4 | –
CC(C)(O)[C@@H]1Cc2c(cc3oc(CO)cc(=O)c3c2O)O1 [Angelicain] | 9.5 | –
O=C1Nc2ccccc2/C1=C1/Nc2ccccc2C1=O [Indirubin] | 35.2 | –
CC(C)c1ccc2c(c1)CC[C@H]1[C@](C)(C(=O)O)CCC[C@]21C [Dehydroabietic acid] | 34 | –
CC(=O)c1c(C)c([N+](=O)[O-])c(C(C)(C)C)c([N+](=O)[O-])c1C [Musk ketone] | 24.2 | –
COc1ccc(-c2oc3c(CC=C(C)C)c(O)cc(O)c3c(=O)c2O[C@@H]2O[C@@H](C)[C@H](O)[C@@H](O)[C@H]2O[C@@H]2O[C@@H](C)[C@H](O)[C@@H](O)[C@H]2O)cc1 [2''-O-Rhamnosylicariside II] | 18.9 | –
O=c1ccc2cc(O)c(O[C@@H]3O[C@H](CO)[C@@H](O)[C@H](O)[C@H]3O)cc2o1 [Cichoriin] | 20.6 | –
COc1cc(OC)cc(OC)c1 [1,3,5-Trimethoxybenzene] | 55.2 | –
C=C(C)[C@H](CC=C(C)C)Cc1c(O)cc(O)c2c1O[C@H](c1ccc(O)cc1O)CC2=O [sophoraflavanone G] | 75.7 | –
Oc1ccc(OC2CCCCO2)cc1 (stereo not shown) [Deoxyarbutin] | 23.7 | –
CNCc1ccccc1 [N-Methylbenzylamine] | 21.7 | –
C=C1C[C@@]23CC[C@H]4[C@@](C)(CCC[C@@]4(C)C(=O)O)[C@@H]2CC[C@]1(O)C3 [Steviol] | 19 | –
CC[C@@H](N)C(=O)O [D(-)-2-Aminobutyric acid] | 10.6 | –
CCc1c2c(nc3ccccc13)-c1cc3c(c(=O)n1C2)COC(=O)[C@]3(O)CC [7-Ethylcamptothecin] | 3.6 | –
O=C1O[C@H]([C@H](O)CO)C(O)=C1O [Sodium erythorbate] | – | 31.1
C=CC1=C(C)c2cc3[nH]c(cc4nc(cc5[nH]c(cc1n2)c(C)c5CCC(=O)O)C(CCC(=O)O)=C4C)c(C)c3C=C [Protoporphyrin IX] | 14.7 | –
